Construct, isoform or probe ends are uncertain for at least one entry. Where cells or extracts were used, other partners may take part. A weaker result is weaker than the reference pair of the same experiment. For some of these results: Protein sequences can lack the tags named with them.
How the values were obtained:
GATA1-3F = GATA1-3F (UniProt P15976); assay: DNA pull-down, Western blot; details: Pull-down: probes immobilised on M-280 beads in 5 mM Tris-HCl pH 7.5, 0.5 mM EDTA, 1 M NaCl; 100 ug nuclear extract; protein in a lysate after overexpression; protein details: FLAG (3F); label: 5'-biotin
GATA2-3F = target: T1, GATA2-3F (UniProt P23769); assay: DNA pull-down, Western blot; details: Pull-down: probes immobilised on M-280 beads in 5 mM Tris-HCl pH 7.5, 0.5 mM EDTA, 1 M NaCl; 100 ug nuclear extract; protein in a lysate after overexpression; protein details: FLAG (3F); label: 5'-biotin
T1 sequence (looked up, limits assumed): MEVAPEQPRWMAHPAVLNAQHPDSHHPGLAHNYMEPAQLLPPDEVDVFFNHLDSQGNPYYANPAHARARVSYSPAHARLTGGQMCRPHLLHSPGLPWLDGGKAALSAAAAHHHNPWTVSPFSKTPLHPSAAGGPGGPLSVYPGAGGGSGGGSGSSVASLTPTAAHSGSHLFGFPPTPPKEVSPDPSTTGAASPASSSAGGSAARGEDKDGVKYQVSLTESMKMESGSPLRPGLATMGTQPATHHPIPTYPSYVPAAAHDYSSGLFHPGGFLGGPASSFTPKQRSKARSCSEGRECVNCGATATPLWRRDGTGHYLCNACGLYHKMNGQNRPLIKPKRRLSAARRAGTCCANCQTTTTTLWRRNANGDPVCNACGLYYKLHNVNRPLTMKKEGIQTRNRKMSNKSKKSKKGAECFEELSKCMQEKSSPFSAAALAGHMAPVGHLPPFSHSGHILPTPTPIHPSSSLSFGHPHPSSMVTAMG

The chains behind the UniProt entries cited, without tags or fusion partners. Where a name states a change or a piece, a line headed by the entry shows the natural chain unless it says otherwise.
UniProt P15976: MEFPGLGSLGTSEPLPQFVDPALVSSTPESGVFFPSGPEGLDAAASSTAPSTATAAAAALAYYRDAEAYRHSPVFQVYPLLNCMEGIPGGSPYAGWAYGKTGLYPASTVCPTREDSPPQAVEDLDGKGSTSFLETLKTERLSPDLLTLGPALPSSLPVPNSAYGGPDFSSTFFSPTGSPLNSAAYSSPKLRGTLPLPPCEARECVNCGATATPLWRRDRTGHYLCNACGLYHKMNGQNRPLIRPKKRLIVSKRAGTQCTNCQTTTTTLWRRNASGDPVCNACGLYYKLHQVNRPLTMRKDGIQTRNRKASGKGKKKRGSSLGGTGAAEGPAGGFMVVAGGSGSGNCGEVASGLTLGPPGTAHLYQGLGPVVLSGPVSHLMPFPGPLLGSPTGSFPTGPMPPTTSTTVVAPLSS

“CTGCCGCCGATTGGTGCTCGC (double strand) [GATA1/2 WT probe]”: binds (GATA1-3F); binds (GATA2-3F).
“CTGCCGAAGCTTGGTGCTCGC (double strand) [GATA1/2 MT probe]”: binds more weakly (GATA1-3F); binds more weakly (GATA2-3F).

Reference: paper PMC5946489
